# Source: article PMC10779018
# B1: Methyltransferase-like 21C (METTL21C), FLAG-tagged (enzyme, UniProt E1BSL9 1-249)
# chain: MQRATDCQAVEEAACEEPSDSENCTSTAESNSDSPVILKILQNWTPTVSHYFDKEHYTYAGQHIVIQESIEHYGAVVWPGALALSQYLESNQERFNLKDKKVLEIGAGTGLVSIVASILGAYVTATDLPEVLENLSFNISRNTHTNTHKPEVRKLVWGEGLNEDFPLSTHHYDFILASDVVYHHTALDALLATMVYFCQPGTVLLWANKFRFSTDYEFLEQLSNVFDTSILAEFPESNVKLLKATVREN
# Target: Phosphorylated adapter RNA export protein (PHAX), HA-tagged
# Experiment: co-IP; HEK293T cells co-transfected with pCD513B-FLAG-METTL21C and pCD513B-HA-PHAX or pCD513B-HA-PHAX (K381); precipitated by HA and by FLAG, detected by blot
binder,measurement,value
B1,binding,binds

# No constants are given. Whether binding was seen depends on the method and setting. Binding seen in cells or lysates may run through a third protein. A result given as binding can be weak or reduced; the word gives no strength. Tags and fused reporters may be left off the sequences shown.
